The record followed here is patent publication EP4755449A2.

This experiment deals with GST-hMSTN 1-100aa (human). As to the kind of experiment: Western blot.

Results are given in words; binding and its absence hold for the method and conditions named. Binding calls can cover weak binding; strength is not graded here.

B1: MST1572 (antibody, human IgG1, kappa, V domains shown)
VH: QSVEESGGRLVTPGTPLTLTCTVSGFSLSSYAMSWVRQAPGKGLEWIGIIYGVGSTYYASWAKGRFTISKTSTTVDLKIASPTTEDTATYFCARDDYGWGYTNLWGPGTLVTVSS
VL: QVLTQTPSSVSAAVGGTVTINCQSSQSVYNNNYLAWFQQKPGQPPKLLIYDASKLASGVPSRFKGSGSGTQFTLTISGVQCDDAATYYCQGSYYSSGWYRAFGGGTKVEIKR
For the molecule B1, the binding result is recorded as “binds”.

B2: MST1032 (as used in Example 26) (antibody, V domains shown)
VH: QSLEESGGRLVTPGGSLTVTCRVSGIDLSSYDISWVRQAPGKGLEWIGIISYAGSTYYASWAKGRFTISKTSTTVDLKMTSLTTEDTATYFCARGVPAYSTGGDLWGPGTLVTVSS
VL: AQVLTQTASSVSAAVGGTVTINCQSSQSVYDNNWLSWFQQKPGQPPKLLIYWASTLASGVPSRFKGSGSGTQFTLTISDLECDDAATYYCAGGYGGGLYAFGGGTKVEIK
Consider B2, for which the binding entry was “binds”.

B3: MST1538 (antibody, human IgG1, kappa, V domains shown)
VH: QSLEESGGGLVKPGGTLTLTCKASGIDFSSYYYMCWVRQAPGKGLEWIACIYAGISGSTYYASWAKGRFTISKTSSTTVTLQMTSLTAADTATYFCARDPYHFDYGSLWGPGTLVTVSS
VL: ALVMTQTPASVSAAVGGTVTINCQASQSVYGGNELSWYQQEPGQPPKLLIYSASKLASGVPSRFKGSGSGTQFTLTISGVQCDDAAAYYCAGYRTYSDDDNAFGGGTKVEIKR
Regarding B3, the binding result was “binds”.

B4: MST1573 (antibody, human IgG1, kappa, V domains shown)
VH: QSVEESGGRLVTPGTPLTLTCTVSGIDLSSSSMIWVRQAPGEGLKYIGFISKSGYTYYASWAKGRFTISKTSTTVDLKITSPTTEDTATYFCARGGYSGDWDYFTLWGPGTLVTVSS
VL: DIVMTQTPASVEAAVGGTVTIKCQASESIGNALAWYQQKPGQPPKLLIYGAFNLESGVPSRFRGSGSGTEYTLTISDLECDDAATYYCQGYFWSSSTIYAFWAFGGGTKVEIKR
Take B4: the binding result is “binds”.
